This test addresses rat LDLR on rat brain capillary endothelial cells (RBCEC) (rat) (UniProt P35952). As to the kind of experiment: binding/uptake on live rat BCEC of the in vitro BBB model, different concentrations, 30 min.

Amino acid sequences for entries named in this document (tags omitted). Residues count along the entry.
UniProt P35952, residues 22-879: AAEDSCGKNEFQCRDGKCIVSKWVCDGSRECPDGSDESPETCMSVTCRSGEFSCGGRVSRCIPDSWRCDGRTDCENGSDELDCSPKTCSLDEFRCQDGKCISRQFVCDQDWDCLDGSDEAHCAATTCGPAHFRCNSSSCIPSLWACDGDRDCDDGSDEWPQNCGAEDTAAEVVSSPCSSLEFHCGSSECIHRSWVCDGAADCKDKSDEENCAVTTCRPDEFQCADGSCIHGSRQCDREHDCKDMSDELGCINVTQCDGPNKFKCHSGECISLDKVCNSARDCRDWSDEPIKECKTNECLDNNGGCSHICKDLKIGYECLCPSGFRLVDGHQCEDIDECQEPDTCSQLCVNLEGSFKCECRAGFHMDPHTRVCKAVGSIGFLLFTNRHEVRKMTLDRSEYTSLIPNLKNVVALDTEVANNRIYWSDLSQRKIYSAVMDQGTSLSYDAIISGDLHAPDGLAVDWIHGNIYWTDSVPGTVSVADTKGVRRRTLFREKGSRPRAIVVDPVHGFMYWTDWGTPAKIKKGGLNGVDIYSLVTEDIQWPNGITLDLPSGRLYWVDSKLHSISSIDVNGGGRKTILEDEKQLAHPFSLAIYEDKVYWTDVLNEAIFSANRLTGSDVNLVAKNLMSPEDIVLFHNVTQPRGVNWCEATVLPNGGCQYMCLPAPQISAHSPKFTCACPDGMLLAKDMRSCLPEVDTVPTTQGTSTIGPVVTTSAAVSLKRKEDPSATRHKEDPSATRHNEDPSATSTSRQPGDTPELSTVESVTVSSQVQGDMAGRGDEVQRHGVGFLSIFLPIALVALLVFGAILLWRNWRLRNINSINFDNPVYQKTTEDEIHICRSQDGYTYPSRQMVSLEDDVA

Results are given in words; binding and its absence hold for the method and conditions named. Some entries that bind do so weakly or less than the wild type. Where a sequence is shown, tags or fusion partners need not be part of it.

B1: Fc-SEQ ID NO: 31 (fusion) (Fc fusion, not shown: a dimerising Fc or GST)
chain: CMPRLRGC
Turning to B1, the binding result is listed as “binds”.

Source of the values: patent publication US20130108548A1 (VECT HORUS, published 2013).
